Test results reported in patent US20230314433A1 (KURUME UNIVERSITY, published 2023).
Results are given in words; binding and its absence hold for the method and conditions named. Some results given as binding are weak or reduced against the parent protein; the word gives no strength.

How the values were obtained:
[1] = target: T1, human MDA5 protein (full-length, about 120 kDa) (human) (UniProt Q9BYX4); experiment: Western blot of normal lung and lung cancer tissues, mAb at 1 ug/mL
T1 sequence: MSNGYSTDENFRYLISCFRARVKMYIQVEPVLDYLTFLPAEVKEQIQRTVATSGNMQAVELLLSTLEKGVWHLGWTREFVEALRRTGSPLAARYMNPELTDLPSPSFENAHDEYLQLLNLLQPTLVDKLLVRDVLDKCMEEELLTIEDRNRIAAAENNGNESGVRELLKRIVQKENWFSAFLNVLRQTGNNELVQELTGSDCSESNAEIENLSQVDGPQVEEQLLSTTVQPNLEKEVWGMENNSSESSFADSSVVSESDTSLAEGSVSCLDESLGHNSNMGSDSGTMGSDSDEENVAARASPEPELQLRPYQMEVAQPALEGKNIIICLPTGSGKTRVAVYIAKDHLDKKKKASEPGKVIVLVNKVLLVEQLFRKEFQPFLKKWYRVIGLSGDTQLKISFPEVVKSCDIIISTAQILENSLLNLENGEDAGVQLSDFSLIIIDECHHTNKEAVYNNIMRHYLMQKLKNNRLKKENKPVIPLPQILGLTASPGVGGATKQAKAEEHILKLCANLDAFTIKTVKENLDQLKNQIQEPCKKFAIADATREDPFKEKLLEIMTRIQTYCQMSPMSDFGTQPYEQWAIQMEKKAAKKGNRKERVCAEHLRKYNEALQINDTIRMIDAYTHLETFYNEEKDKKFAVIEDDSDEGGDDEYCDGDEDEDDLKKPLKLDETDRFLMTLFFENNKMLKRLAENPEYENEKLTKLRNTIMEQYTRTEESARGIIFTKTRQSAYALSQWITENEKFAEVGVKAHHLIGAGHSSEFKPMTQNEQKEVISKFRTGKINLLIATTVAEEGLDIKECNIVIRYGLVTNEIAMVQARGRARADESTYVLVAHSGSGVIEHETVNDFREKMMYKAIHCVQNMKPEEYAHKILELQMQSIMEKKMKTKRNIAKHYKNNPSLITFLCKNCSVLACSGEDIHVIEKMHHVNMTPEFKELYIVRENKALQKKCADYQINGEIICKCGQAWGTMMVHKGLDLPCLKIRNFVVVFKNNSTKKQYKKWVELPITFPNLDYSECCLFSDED

[2] = target: T1, human MDA5 protein (full-length, about 120 kDa) (human); experiment: immunohistochemistry of human tonsil and pancreas sections, H27 at 1 ug/mL
[3] = target: T2, recombinant human MDA5 protein (human, UniProt Q9BYX4 1-1025); experiment: electrochemiluminescence sandwich immunoassay (MSD), biotin-labelled H27 as secondary (detection) mAb
T2 construct: Expressed in SF9 cells with baculovirus; also called pPSC8/human MDA5 product; MDA5 standard; not shown: N-terminal 6X His tag, GST and turbo 3C protease cleavage site
T2 sequence: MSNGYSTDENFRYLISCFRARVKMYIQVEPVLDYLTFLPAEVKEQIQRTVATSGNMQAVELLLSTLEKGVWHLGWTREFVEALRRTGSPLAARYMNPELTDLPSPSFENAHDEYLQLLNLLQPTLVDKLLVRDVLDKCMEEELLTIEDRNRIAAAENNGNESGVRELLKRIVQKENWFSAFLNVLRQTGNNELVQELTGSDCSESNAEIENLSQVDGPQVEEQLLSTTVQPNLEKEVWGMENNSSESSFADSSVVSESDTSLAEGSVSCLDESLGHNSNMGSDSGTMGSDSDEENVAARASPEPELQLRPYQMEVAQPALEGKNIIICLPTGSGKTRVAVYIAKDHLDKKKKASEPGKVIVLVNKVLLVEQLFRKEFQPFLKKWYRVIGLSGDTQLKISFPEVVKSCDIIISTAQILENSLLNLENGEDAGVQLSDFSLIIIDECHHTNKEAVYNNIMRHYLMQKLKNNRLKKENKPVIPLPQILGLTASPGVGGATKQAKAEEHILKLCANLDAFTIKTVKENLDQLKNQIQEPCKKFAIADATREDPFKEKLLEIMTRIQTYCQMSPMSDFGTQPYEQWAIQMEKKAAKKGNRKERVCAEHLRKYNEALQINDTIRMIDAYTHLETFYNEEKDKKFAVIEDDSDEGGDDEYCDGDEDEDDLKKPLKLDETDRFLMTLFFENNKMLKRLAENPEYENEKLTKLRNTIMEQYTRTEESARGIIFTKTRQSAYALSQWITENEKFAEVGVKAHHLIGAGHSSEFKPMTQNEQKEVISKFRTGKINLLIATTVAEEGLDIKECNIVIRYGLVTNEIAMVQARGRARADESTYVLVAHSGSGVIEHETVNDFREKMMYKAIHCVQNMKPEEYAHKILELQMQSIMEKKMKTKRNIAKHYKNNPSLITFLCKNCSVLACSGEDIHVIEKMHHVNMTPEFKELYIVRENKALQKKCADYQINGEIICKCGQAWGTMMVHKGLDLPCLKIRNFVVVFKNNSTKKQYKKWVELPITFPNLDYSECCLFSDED

Measured: binding

B1: mouse anti-human MDA5 monoclonal antibody (H27) (antibody, V domains shown)
VH: QIQLVQSGPELKKPGETVKISCKASGYTFTDYSMHWVKQAPGKGLKWMGWINTETGDPKYADDFKGRFVFSLETSASTAYLQINNLKNEDTASYFCAVATNYWGQGTTLTVSS
VL: DIQMTQSPSSLSASLGERVSLTCRASQDIGSSLNWLQQKPDGAIKRLISATSSLDSGVPKRFSGSRSGSDYSLTISSLESEDFVDYFCLQYASSPLTFGAGTKLELR
binds: all assays above
